From US20110086044A1, “Compositions and Methods to Inhibit HPV Infection” (University of Southern California, priority 2009, published 2011) come the findings set out here.

Chains of the proteins cited; added tags and fusions are not shown. Lines headed by an entry give the natural chain unless they say otherwise; changes in a name come on top.
UniProt P60903: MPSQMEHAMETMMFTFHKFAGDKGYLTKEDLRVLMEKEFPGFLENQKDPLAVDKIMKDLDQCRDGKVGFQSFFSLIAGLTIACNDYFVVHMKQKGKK
UniProt P03107: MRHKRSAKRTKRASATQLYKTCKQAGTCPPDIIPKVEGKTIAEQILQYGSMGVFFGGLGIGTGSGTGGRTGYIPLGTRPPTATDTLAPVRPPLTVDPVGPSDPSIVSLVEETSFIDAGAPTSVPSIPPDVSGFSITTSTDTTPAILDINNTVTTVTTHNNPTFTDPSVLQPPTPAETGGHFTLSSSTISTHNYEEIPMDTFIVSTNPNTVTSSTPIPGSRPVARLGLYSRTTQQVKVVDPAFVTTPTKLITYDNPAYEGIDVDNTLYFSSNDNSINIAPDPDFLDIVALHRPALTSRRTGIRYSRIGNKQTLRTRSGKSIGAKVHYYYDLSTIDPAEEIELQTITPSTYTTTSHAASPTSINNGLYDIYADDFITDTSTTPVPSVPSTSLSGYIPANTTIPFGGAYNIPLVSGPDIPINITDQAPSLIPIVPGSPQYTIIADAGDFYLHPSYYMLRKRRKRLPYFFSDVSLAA

No constants are given. Whether binding was seen depends on the method and setting. Some results given as binding are weak or reduced against the parent protein; the word gives no strength.

For the test, the target named is ANXA2 heterotetramer (human) (UniProt P60903). Description: summary of the pulldown and binding assays of Example 2.

Regarding “HPV16 L2 protein (from UniProt P03107 1-473)”, the binding entry is on record as “binds”.
